# Assay results

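Genome-wide siRNA knockdown in TC32 Ewing sarcoma cells, comparing luciferase light from an NR0B1-promoter reporter with a CMV-promoter reporter 48 hours after transfection.
Each siRNA was applied at 20 nM.
A z-score of the log NR0B1-over-CMV signal, less the median of siRNAs with the same seed; more negative means a stronger specific loss of the NR0B1 reporter.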

This is part of the screen; most of the strongest results are not listed here.
Sequences are the guide (antisense) strand, without overhang.

With UAUUGAGUCAAAUUCCUUC against NAPB the assay gave seed-corrected z-score 0.1295.
With AUAGGGUCAGGAUAACUUG against TNFSF10 the assay gave seed-corrected z-score 0.9131.
With UGUCUCUCAAGCUGCACUC against TBC1D3G the assay gave seed-corrected z-score -0.02301.
With AUAGGGAUGAAUGUGAUCC against GPRC6A the assay gave seed-corrected z-score 0.3251.
With AUUAUCAUCAGUUUGUUUC against TCEAL1 the assay gave seed-corrected z-score 0.1918.
With UAUCUAGACAUGUCAAAGU against FAM219A the assay gave seed-corrected z-score 0.9444.
With UAAUAUAAAAAGGGCAUAU against CDK2AP2 the assay gave seed-corrected z-score -0.287.
With UCUUCCAACAGUUUUAGGG against NAA16 the assay gave seed-corrected z-score -0.3519.
With UUAUGGUGUAGUAUUCAUC against PLET1 the assay gave seed-corrected z-score 1.163.
With AGCAGGAACCUUUAUAACC against LOC128192 the assay gave seed-corrected z-score 0.7948.
With UCAUAUACCACUUUGCCUC against DPYS the assay gave seed-corrected z-score -0.4251.
With UCCAGUAUAUGAUCUCCGC against ADM5 the assay gave seed-corrected z-score 1.177.
With UCUGGGAUCCGAGUCCUGA against RAB44 the assay gave seed-corrected z-score 0.2302.
With UUUCAAUAUUGAAACGACC against C12orf45 the assay gave seed-corrected z-score -0.1254.
With ACAGGUAACUGCAAAGGCC against MMGT1 the assay gave seed-corrected z-score 2.186.
With UAAGCUUAGCCUUAUUAGG against MEIOC the assay gave seed-corrected z-score 0.517.
With UGCUGUAUUAGGUAAAAUC against TSPY1 the assay gave seed-corrected z-score 0.4329.
With UGUCGUUCUGCGAUAAUCA against MRPS34 the assay gave seed-corrected z-score -0.8319.
With AAACUUACAUCUCAAAGGG against MPZ the assay gave seed-corrected z-score -1.297.
With AUGGUAGUACUUGCACUGC against CHCHD10 the assay gave seed-corrected z-score -1.197.
With UAGGCUUCAAUCACACGAC against MUC4 the assay gave seed-corrected z-score -0.1776.
With UAUCGGUACUGAAUAUCGC against DPY19L3 the assay gave seed-corrected z-score 0.1844.
With UGAAGUACCUUCUUCCCUG against CRB3 the assay gave seed-corrected z-score 0.9394.
With UUUGUUCAACCGAAGAUAG against DNAJC12 the assay gave seed-corrected z-score -0.7712.
With UAAGUCAGGGCCGAAAAGC against SERPINF2 the assay gave seed-corrected z-score -0.8877.
With UCUAUUGUUCGUGGAAUCC against MCM8 the assay gave seed-corrected z-score 0.3639.
With UAAGAAUCACAUGAAGGGC against IL21 the assay gave seed-corrected z-score -0.7009.
With UAUAUCAUCUCUCCAGUUG against KDM4E the assay gave seed-corrected z-score -0.1827.
With UUUGCGAAUCAGCAGCUCG against HIST1H3D the assay gave seed-corrected z-score -0.6729.
With UUGGGUAACAUCGGACAAG against FBXO32 the assay gave seed-corrected z-score -0.7479.
With UUCCCUAAGUUUCUCUUGC against PPBPP1 the assay gave seed-corrected z-score 0.2294.
With UCAAUAUCCACCGGUUUGC against ATAD2B the assay gave seed-corrected z-score 0.1472.
With UUUCCGACAACCAAAUAGG against SLC16A10 the assay gave seed-corrected z-score 0.04878.
With UGUACUAUGACUCUGGAUG against POLI the assay gave seed-corrected z-score 0.1102.
With AUUUCCUUCUGUCACAUUC against TTYH1 the assay gave seed-corrected z-score -0.1822.
With UAAGGAUCGACAUCUUACC against NAE1 the assay gave seed-corrected z-score 0.1782.
With UUGGAAAUAAUCAUCAUGC against CPSF7 the assay gave seed-corrected z-score 0.7101.
With AAAAACUUAAGCUCUUCUU against OCM the assay gave seed-corrected z-score -0.2533.
With UCCUUCUUUAUCGCUGUCC against H2AFY2 the assay gave seed-corrected z-score -0.03956.
With UCUUAGUAGAGUCAUAAUC against SCG3 the assay gave seed-corrected z-score 0.7967.
With UAGCGAUGGAUGUAGAUCC against ADCY8 the assay gave seed-corrected z-score -0.9273.

The first 2 entries again:

Sequence,gene,seed-corrected z-score
UAUUGAGUCAAAUUCCUUC,NAPB,0.1295
AUAGGGUCAGGAUAACUUG,TNFSF10,0.9131

The results are deposited in PubChem (AID1159506; NCATS, 2015).